Assay results published in PMC7260190.
Results are given in words; binding and its absence hold for the method and conditions named. Binding seen in cells or lysates may run through a third protein. Binding can be weak; no strength is given. For part of these data: Tags and fused reporters may be left off the sequences shown.

Tests used:
UNC-40-RFP (C. elegans) = target: T1, UNC-40-RFP (C. elegans) (UniProt G5EF96); assay: co-IP; whole worm extracts (2% Triton X-100 lysis, diluted to 0.2%); UNC-40-RFP precipitated with RFP-Trap-A beads overnight at 4 °C; GFP fusions detected by western blot
T1 sequence: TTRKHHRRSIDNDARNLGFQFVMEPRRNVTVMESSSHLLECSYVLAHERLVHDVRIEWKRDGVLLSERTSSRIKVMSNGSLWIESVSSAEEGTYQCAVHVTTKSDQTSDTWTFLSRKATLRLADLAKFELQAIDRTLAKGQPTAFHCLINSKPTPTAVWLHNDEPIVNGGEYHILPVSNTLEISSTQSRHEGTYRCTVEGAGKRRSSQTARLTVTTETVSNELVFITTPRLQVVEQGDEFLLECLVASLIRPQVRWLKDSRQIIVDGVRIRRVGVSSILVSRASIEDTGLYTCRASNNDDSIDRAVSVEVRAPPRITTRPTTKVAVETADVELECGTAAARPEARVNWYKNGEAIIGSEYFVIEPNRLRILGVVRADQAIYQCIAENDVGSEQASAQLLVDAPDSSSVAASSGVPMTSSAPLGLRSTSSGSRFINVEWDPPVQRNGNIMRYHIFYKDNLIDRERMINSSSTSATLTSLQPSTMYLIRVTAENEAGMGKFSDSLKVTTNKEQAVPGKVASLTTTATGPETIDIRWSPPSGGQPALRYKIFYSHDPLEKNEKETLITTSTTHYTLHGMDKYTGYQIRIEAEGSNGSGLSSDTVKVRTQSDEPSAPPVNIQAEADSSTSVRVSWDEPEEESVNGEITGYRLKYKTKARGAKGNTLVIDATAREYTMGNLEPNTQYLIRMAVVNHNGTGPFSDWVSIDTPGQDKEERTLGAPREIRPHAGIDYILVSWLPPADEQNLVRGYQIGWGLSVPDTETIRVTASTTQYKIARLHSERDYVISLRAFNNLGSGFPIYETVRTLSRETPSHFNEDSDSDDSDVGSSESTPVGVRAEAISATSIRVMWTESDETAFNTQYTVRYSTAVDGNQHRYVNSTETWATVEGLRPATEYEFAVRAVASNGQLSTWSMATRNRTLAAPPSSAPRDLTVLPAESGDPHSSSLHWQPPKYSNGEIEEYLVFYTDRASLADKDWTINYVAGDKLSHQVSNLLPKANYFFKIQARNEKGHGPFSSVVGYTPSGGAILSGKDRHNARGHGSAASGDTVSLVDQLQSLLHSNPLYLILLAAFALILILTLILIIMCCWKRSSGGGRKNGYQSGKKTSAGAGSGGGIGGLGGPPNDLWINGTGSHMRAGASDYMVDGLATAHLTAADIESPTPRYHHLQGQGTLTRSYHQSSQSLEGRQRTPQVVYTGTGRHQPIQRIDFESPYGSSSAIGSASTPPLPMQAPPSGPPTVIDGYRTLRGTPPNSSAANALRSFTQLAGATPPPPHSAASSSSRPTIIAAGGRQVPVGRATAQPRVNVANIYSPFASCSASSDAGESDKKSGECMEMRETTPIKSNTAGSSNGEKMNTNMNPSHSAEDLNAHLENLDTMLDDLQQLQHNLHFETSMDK

NLG-1-GFP (C. elegans) = target: T2, NLG-1-GFP (C. elegans) (UniProt Q9XTG1); assay: co-IP; worm lysates of wild type and unc-40(0), lin-2(0) and frm-3(0) null mutants; NLG-1-GFP precipitated with anti-GFP nanobody Trap-A beads; RFP-UNC-49 detected by anti-RFP western blot
T2 sequence: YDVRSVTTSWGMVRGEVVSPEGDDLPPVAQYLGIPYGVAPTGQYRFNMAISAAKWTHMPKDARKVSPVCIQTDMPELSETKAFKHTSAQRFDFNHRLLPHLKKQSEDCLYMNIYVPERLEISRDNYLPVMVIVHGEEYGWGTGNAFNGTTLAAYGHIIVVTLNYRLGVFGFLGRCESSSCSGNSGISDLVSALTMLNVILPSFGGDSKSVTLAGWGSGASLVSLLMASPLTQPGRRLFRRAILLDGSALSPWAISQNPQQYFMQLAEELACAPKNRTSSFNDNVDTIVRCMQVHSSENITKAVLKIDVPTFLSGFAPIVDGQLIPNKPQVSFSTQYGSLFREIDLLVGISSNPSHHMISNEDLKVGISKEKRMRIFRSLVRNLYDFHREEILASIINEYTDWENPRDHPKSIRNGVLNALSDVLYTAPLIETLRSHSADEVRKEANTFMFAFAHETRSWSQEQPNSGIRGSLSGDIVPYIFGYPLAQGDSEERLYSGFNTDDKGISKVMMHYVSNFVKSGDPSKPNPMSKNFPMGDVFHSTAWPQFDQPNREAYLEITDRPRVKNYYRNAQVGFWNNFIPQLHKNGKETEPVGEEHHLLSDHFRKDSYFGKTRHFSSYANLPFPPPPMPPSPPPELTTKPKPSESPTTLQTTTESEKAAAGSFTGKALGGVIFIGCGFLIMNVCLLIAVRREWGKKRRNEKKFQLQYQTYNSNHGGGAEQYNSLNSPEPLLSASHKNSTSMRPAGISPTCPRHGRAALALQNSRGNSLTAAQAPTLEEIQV

GST-LIN-2B (C. elegans) = target: T3, GST-LIN-2B (C. elegans) (UniProt P54936); assay: pull-down; GST fusion from E. coli lysate on glutathione-Sepharose 4B beads, incubated with in vitro translated HA-tagged protein 12 h at 4 °C; five washes in STE (10 mM Tris-Cl pH 8.0, 150 mM NaCl, 1 mM EDTA, 0.1% Tween-20); anti-HA immunoblot; only the target purified
T3 sequence: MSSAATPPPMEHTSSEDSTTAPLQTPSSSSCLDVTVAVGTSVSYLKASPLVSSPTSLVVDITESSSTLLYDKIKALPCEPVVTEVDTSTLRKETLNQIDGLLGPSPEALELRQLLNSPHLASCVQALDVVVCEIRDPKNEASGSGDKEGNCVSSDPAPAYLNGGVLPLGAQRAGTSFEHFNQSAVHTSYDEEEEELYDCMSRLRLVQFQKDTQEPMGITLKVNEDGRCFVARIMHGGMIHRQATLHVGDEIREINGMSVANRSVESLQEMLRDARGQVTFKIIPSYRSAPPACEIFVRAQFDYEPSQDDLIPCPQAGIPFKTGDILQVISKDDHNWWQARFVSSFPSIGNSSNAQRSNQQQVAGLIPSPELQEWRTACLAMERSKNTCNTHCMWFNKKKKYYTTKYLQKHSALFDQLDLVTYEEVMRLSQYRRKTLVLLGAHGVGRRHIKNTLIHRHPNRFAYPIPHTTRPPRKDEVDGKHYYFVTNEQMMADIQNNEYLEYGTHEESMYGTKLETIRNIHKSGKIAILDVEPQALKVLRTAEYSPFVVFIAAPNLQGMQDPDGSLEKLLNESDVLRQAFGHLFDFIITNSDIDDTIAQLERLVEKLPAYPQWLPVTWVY

[1] = target: GST-tagged UNC-49B_loop (TM3-TM4 intracellular loop of UNC-49B fused to GST) (C. elegans); assay: as above

Molecule	binding (UNC-40-RFP (C. elegans))	binding (GST-LIN-2B (C. elegans))	also measured
FRM-3B-GFP full length (C. elegans)	binds	–	–
RFP-UNC-49 (tagRFP-T-tagged GABAA receptor, knock-in unc-49(kr296)) (C. elegans)	–	–	binding (NLG-1-GFP (C. elegans)): binds
FERM-FA-GFP (FERM-FA domains of FRM-3 fused to GFP) (C. elegans) (domain or fragment)	binds	–	–
HA-UNC-49B_TM3-4 intracellular loop (C. elegans) (domain or fragment)	–	binds	–
HA-tagged FERM-FA domains of FRM-3 (C. elegans) (domain or fragment)	–	binds	–
HA-tagged full-length LIN-2B (protein, UniProt P54936-2 1-620) MSSAATPPPMEHTSSEDSTTAPLQTPSSSSCLDVTVAVGTSVSYLKASPLVSSPTSLVVDITESSSTLLYDKIKALPCEPVVTEVDTSTLRKETLNQIDGLLGPSPEALELRQLLNSPHLASCVQALDVVVCEIRDPKNEASGSGDKEGNCVSSDPAPAYLNGGVLPLGAQRAGTSFEHFNQSAVHTSYDEEEEELYDCMSRLRLVQFQKDTQEPMGITLKVNEDGRCFVARIMHGGMIHRQATLHVGDEIREINGMSVANRSVESLQEMLRDARGQVTFKIIPSYRSAPPACEIFVRAQFDYEPSQDDLIPCPQAGIPFKTGDILQVISKDDHNWWQARFVSSFPSIGNSSNAQRSNQQQVAGLIPSPELQEWRTACLAMERSKNTCNTHCMWFNKKKKYYTTKYLQKHSALFDQLDLVTYEEVMRLSQYRRKTLVLLGAHGVGRRHIKNTLIHRHPNRFAYPIPHTTRPPRKDEVDGKHYYFVTNEQMMADIQNNEYLEYGTHEESMYGTKLETIRNIHKSGKIAILDVEPQALKVLRTAEYSPFVVFIAAPNLQGMQDPDGSLEKLLNESDVLRQAFGHLFDFIITNSDIDDTIAQLERLVEKLPAYPQWLPVTWVY	–	–	binding [1]: binds
